Test results taken from paper PMC11132878.
These are yes or no findings as the source states them, for the method shown. Binding seen in cells or lysates may run through a third protein. Some binding calls cover weakened binding; strength is not graded here. Where a sequence is shown, tags or fusion partners need not be part of it.

T1: GST-CHR24-ATPase (Arabidopsis thaliana) (UniProt Q8W103)
T1 sequence: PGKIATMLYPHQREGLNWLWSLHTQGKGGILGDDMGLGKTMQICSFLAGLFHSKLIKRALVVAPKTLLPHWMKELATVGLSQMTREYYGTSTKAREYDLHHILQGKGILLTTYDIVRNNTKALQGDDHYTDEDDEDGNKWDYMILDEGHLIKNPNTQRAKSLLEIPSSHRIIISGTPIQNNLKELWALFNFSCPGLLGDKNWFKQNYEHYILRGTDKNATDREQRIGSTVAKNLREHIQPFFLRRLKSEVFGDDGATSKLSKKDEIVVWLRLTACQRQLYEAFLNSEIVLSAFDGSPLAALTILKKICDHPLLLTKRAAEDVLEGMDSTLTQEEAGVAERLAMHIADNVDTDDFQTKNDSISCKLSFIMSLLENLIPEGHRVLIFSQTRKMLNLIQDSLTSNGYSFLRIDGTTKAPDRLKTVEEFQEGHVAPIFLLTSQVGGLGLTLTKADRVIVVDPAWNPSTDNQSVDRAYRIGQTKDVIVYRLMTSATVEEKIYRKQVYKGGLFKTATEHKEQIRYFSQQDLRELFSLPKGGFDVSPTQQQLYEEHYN

T2: FLAG-Apn1 (yeast) (UniProt P22936)
T2 sequence: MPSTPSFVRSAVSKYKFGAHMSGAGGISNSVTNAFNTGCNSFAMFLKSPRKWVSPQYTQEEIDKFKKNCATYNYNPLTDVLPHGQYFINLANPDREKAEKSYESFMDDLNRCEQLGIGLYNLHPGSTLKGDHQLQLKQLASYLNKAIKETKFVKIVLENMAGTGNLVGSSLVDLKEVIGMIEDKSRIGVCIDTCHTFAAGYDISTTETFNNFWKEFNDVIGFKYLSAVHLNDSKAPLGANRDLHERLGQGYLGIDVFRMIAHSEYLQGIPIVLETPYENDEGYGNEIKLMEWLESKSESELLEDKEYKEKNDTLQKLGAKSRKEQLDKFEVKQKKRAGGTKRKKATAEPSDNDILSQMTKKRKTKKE

T3: HA-Rad26 (yeast) (UniProt P40352)
T3 sequence: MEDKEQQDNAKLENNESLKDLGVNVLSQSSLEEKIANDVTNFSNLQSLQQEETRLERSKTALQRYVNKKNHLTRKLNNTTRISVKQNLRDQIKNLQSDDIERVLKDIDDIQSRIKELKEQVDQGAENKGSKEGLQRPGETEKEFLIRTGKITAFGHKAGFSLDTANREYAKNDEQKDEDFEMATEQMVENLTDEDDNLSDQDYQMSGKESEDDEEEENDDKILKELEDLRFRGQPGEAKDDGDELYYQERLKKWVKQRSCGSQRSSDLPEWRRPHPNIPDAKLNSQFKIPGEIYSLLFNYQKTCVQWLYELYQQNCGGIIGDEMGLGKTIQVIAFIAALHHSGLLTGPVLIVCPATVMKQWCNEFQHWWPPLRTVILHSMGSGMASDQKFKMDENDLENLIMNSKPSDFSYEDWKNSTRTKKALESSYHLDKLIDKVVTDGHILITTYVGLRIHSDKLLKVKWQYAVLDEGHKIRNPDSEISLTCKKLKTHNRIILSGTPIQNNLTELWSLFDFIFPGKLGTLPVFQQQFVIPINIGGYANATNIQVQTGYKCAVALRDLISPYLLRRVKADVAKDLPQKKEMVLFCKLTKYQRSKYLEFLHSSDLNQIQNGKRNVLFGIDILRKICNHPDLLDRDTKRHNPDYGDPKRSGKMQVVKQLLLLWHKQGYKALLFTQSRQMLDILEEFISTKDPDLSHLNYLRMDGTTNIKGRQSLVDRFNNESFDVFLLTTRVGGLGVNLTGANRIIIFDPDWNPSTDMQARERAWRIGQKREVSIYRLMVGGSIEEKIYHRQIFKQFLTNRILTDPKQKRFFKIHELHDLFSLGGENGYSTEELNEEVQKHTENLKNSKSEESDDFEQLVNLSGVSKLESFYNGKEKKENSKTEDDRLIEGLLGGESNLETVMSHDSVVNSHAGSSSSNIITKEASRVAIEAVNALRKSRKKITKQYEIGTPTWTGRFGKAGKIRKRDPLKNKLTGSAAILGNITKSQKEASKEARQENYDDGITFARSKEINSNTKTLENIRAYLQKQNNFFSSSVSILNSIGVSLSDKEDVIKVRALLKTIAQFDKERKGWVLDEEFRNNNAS


Assays:
[1] = molecular target: T1, GST-CHR24-ATPase (Arabidopsis thaliana); experiment: pull-down; GST-tagged truncated CHR24 proteins on glutathione-sepharose 4B beads, plant extracts; detection with antibody against GFP (YFP-NAP1;2) or MYC (MYC-ARP); only the target purified
FLAG-Apn1 (yeast) [2] = molecular target: T2, FLAG-Apn1 (yeast); experiment: co-IP; FLAG-Apn1, Nap1-MYC and HA-Rad26 co-expressed in yeast apn1Δ nap1Δ rad26Δ cells; co-IP buffer 50 mM Tris–HCl pH 7.8, 100 mM NaCl, 5 mM MgCl2, 10% glycerol, 0.05% NP-40, 1 mM DTT; IP with or without antibodies against FLAG, HA and MYC
FLAG-Apn1 (yeast) [3] = molecular target: T2, FLAG-Apn1 (yeast); experiment: co-IP; pairwise co-IP validation of Apn1, Nap1 and Rad26 in yeast with negative controls (Supplementary Fig. S14)
HA-Rad26 (yeast) [4] = molecular target: T3, HA-Rad26 (yeast); experiment: co-IP; FLAG-Apn1, Nap1-MYC and HA-Rad26 co-expressed in yeast apn1Δ nap1Δ rad26Δ cells; co-IP buffer 50 mM Tris–HCl pH 7.8, 100 mM NaCl, 5 mM MgCl2, 10% glycerol, 0.05% NP-40, 1 mM DTT; IP with or without antibodies against FLAG, HA and MYC
HA-Rad26 (yeast) [5] = molecular target: T3, HA-Rad26 (yeast); experiment: co-IP; pairwise co-IP validation of Apn1, Nap1 and Rad26 in yeast with negative controls (Supplementary Fig. S14)

| Binder | binding [1] | binding (FLAG-Apn1 (yeast) [2]) | binding (FLAG-Apn1 (yeast) [3]) | binding (HA-Rad26 (yeast) [4]) | binding (HA-Rad26 (yeast) [5]) |
| --- | --- | --- | --- | --- | --- |
| MYC-tagged ARP (MYC-ARP) (enzyme, UniProt P45951 1-536) MNNVLQFGLQSSAIYVAKFLVVPLRSLRVGSSFVGVGVGTRSFNKRLMSNATAFSINNSKRKELKIPGAAIDQNCHQMGSDTDRDEMGTLQDDRKEIEAMTVQELRSTLRKLGVPVKGRKQELISTLRLHMDSNLPDQKETSSSTRSDSVTIKRKISNREEPTEDECTNSEAYDIEHGEKRVKQSTEKNLKAKVSAKAIAKEQKSLMRTGKQQIQSKEETSSTISSELLKTEEIISSPSQSEPWTVLAHKKPQKDWKAYNPKTMRPPPLPEGTKCVKVMTWNVNGLRGLLKFESFSALQLAQRENFDILCLQETKLQVKDVEEIKKTLIDGYDHSFWSCSVSKLGYSGTAIISRIKPLSVRYGTGLSGHDTEGRIVTAEFDSFYLINTYVPNSGDGLKRLSYRIEEWDRTLSNHIKELEKSKPVVLTGDLNCAHEEIDIFNPAGNKRSAGFTIEERQSFGANLLDKGFVDTFRKQHPGVVGYTYWGYRHGGRKTNKGWRLDYFLVSQSIAANVHDSYILPDINGSDHCPIGLILKL | binds |  |  |  |  |
| HA-Rad26 (enzyme, UniProt P40352 1-1085) MEDKEQQDNAKLENNESLKDLGVNVLSQSSLEEKIANDVTNFSNLQSLQQEETRLERSKTALQRYVNKKNHLTRKLNNTTRISVKQNLRDQIKNLQSDDIERVLKDIDDIQSRIKELKEQVDQGAENKGSKEGLQRPGETEKEFLIRTGKITAFGHKAGFSLDTANREYAKNDEQKDEDFEMATEQMVENLTDEDDNLSDQDYQMSGKESEDDEEEENDDKILKELEDLRFRGQPGEAKDDGDELYYQERLKKWVKQRSCGSQRSSDLPEWRRPHPNIPDAKLNSQFKIPGEIYSLLFNYQKTCVQWLYELYQQNCGGIIGDEMGLGKTIQVIAFIAALHHSGLLTGPVLIVCPATVMKQWCNEFQHWWPPLRTVILHSMGSGMASDQKFKMDENDLENLIMNSKPSDFSYEDWKNSTRTKKALESSYHLDKLIDKVVTDGHILITTYVGLRIHSDKLLKVKWQYAVLDEGHKIRNPDSEISLTCKKLKTHNRIILSGTPIQNNLTELWSLFDFIFPGKLGTLPVFQQQFVIPINIGGYANATNIQVQTGYKCAVALRDLISPYLLRRVKADVAKDLPQKKEMVLFCKLTKYQRSKYLEFLHSSDLNQIQNGKRNVLFGIDILRKICNHPDLLDRDTKRHNPDYGDPKRSGKMQVVKQLLLLWHKQGYKALLFTQSRQMLDILEEFISTKDPDLSHLNYLRMDGTTNIKGRQSLVDRFNNESFDVFLLTTRVGGLGVNLTGANRIIIFDPDWNPSTDMQARERAWRIGQKREVSIYRLMVGGSIEEKIYHRQIFKQFLTNRILTDPKQKRFFKIHELHDLFSLGGENGYSTEELNEEVQKHTENLKNSKSEESDDFEQLVNLSGVSKLESFYNGKEKKENSKTEDDRLIEGLLGGESNLETVMSHDSVVNSHAGSSSSNIITKEASRVAIEAVNALRKSRKKITKQYEIGTPTWTGRFGKAGKIRKRDPLKNKLTGSAAILGNITKSQKEASKEARQENYDDGITFARSKEINSNTKTLENIRAYLQKQNNFFSSSVSILNSIGVSLSDKEDVIKVRALLKTIAQFDKERKGWVLDEEFRNNNAS |  | binds | binds |  |  |
| Nap1-MYC (protein, UniProt P25293 1-417) MSDPIRTKPKSSMQIDNAPTPHNTPASVLNPSYLKNGNPVRAQAQEQDDKIGTINEEDILANQPLLLQSIQDRLGSLVGQDSGYVGGLPKNVKEKLLSLKTLQSELFEVEKEFQVEMFELENKFLQKYKPIWEQRSRIISGQEQPKPEQIAKGQEIVESLNETELLVDEEEKAQNDSEEEQVKGIPSFWLTALENLPIVCDTITDRDAEVLEYLQDIGLEYLTDGRPGFKLLFRFDSSANPFFTNDILCKTYFYQKELGYSGDFIYDHAEGCEISWKDNAHNVTVDLEMRKQRNKTTKQVRTIEKITPIESFFNFFDPPKIQNEDQDEELEEDLEERLALDYSIGEQLKDKLIPRAVDWFTGAALEFEFEEDEEEADEDEDEEEDDDHGLEDDDGESAEEQDDFAGRPEQAPECKQS |  | binds | binds | binds | binds |
